Values from PubChem BioAssay AID1259254 (NCATS, 2017).
Here is one part, drawn at random, of about 59,000 reagents. Over the whole deposit, about 1,550 (2.6%) got an active call. 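G2 share is only a proxy for re-replication; each gene was hit by three separate siRNAs, and active genes were retested.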 The numbers tell different reagents against one gene apart. Not all columns of the deposit are shown. No sequences are given here. Not given: the amount of reagent.

- Aim: 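Gene knock-downs that lead to re-replication, shown by excess G2 DNA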 (primary screen)
- Cell system: human HCT116 colorectal cancer cells
- Knock-down reagent: single siRNA against human genes
- Duration: 3 days
- Detection: 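Nuclei stained with Hoechst and imaged; cell-cycle phase assigned by DNA content; G2 share scaled per plate, non-targeting siRNA 0%, GMNN siRNA 100%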
- Scale: G2 robust z-score and G2 cells, % of GMNN control: higher = more G2 cells, more excess DNA replication
- Active means: 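An siRNA counts as active if its G2 robust z-score lies at least 5 MADs above the screen median; here such calls match roughly 38% of GMNN control or more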

gene	reagent no.	G2 robust z-score	G2 cells, % of GMNN control	activity call
PREPL	1	-1.08	-4.61	inactive
PREPL	2	-0.923	-3.53	inactive
PREPL	3	-0.421	0.00739	inactive
MN1	1	1.4	12.8	inactive
MN1	2	-0.719	-2.09	inactive
MN1	3	0.931	9.52	inactive
THAP4	1	0.64	7.47	inactive
THAP4	2	1.25	11.8	inactive
THAP4	3	2.44	20.1	inactive
HNRNPCL1	1	1.68	14.8	inactive
HNRNPCL1	2	-0.981	-3.94	inactive
HNRNPCL1	3	0.537	6.74	inactive
GTPBP6	1	3.01	24.1	inactive
GTPBP6	2	-0.406	0.111	inactive
GTPBP6	3	1.02	10.1	inactive
TFAM	1	-1.01	-4.14	inactive
TFAM	2	1.29	12	inactive
TFAM	3	-0.505	-0.587	inactive
HCFC2	1	1.09	10.7	inactive
HCFC2	2	-0.401	0.144	inactive
HCFC2	3	-0.266	1.1	inactive
JUNB	1	-0.695	-1.92	inactive
JUNB	2	-0.62	-1.39	inactive
JUNB	3	4.37	33.7	inactive
TRABD2A	1	-0.274	1.04	inactive
TRABD2A	2	-0.961	-3.79	inactive
TRABD2A	3	-0.292	0.915	inactive
LSM5	1	-0.972	-3.87	inactive
LSM5	2	0.521	6.63	inactive
LSM5	3	0.319	5.21	inactive
RNASE6	1	-0.727	-2.15	inactive
RNASE6	2	-0.858	-3.07	inactive
RNASE6	3	0.32	5.22	inactive
KDF1	1	0.554	6.86	inactive
KDF1	2	0.388	5.7	inactive
KDF1	3	-0.73	-2.17	inactive
MIDEAS	1	1.3	12.1	inactive
MIDEAS	2	-0.642	-1.55	inactive
MIDEAS	3	1.64	14.5	inactive
LOC729609	1	-0.633	-1.49	inactive
LOC729609	2	2.72	22.1	inactive
LOC729609	3	1.79	15.6	inactive
HAS1	1	-1.01	-4.16	inactive
HAS1	2	-1.26	-5.92	inactive
HAS1	3	0.0166	3.08	inactive
STRADB	1	2.26	18.9	inactive
STRADB	2	-1.24	-5.75	inactive
STRADB	3	-0.345	0.541	inactive
PADI2	1	1.71	15	inactive
PADI2	2	0.425	5.95	inactive
PADI2	3	-0.634	-1.49	inactive
MBTD1	1	0.0314	3.19	inactive
MBTD1	2	-0.402	0.137	inactive
MBTD1	3	-0.309	0.792	inactive
CHPF	1	2.32	19.3	inactive
CHPF	2	2.4	19.9	inactive
CHPF	3	1.98	16.9	inactive
CRTC3	1	0.0632	3.41	inactive
CRTC3	2	-0.861	-3.09	inactive
CRTC3	3	0.376	5.62	inactive
TGS1	1	-1.1	-4.8	inactive
TGS1	2	-0.398	0.17	inactive
TGS1	3	-0.864	-3.11	inactive
DENND4C	1	-0.352	0.491	inactive
DENND4C	2	-0.492	-0.496	inactive
DENND4C	3	6.78	50.6	active
SPAG16	1	0.673	7.7	inactive
SPAG16	2	0.064	3.42	inactive
SPAG16	3	0.222	4.53	inactive
RBP5	1	-0.492	-0.497	inactive
RBP5	2	-1.06	-4.52	inactive
RBP5	3	0.918	9.42	inactive
SMIM5	1	-0.356	0.459	inactive
SMIM5	2	-0.364	0.405	inactive
SMIM5	3	1.73	15.1	inactive
MIR34BHG	1	0.725	8.07	inactive
MIR34BHG	2	0.0185	3.1	inactive
MIR34BHG	3	0.0486	3.31	inactive
KLHL15	1	0.777	8.43	inactive
KLHL15	2	0.232	4.6	inactive
KLHL15	3	1.42	12.9	inactive
NOP58	1	2.66	21.7	inactive
NOP58	2	0.154	4.05	inactive
NOP58	3	2.9	23.3	inactive
CITED4	1	0.372	5.58	inactive
CITED4	2	0.187	4.28	inactive
CITED4	3	-0.477	-0.387	inactive

Part of the list above, reformatted.
TFAM #1 — G2 robust z-score = -1.01; G2 cells, % of GMNN control = -4.14; activity call = inactive
TFAM #2 — G2 robust z-score = 1.29; G2 cells, % of GMNN control = 12; activity call = inactive
TFAM #3 — G2 robust z-score = -0.505; G2 cells, % of GMNN control = -0.587; activity call = inactive
HCFC2 #1 — G2 robust z-score = 1.09; G2 cells, % of GMNN control = 10.7; activity call = inactive
HCFC2 #2 — G2 robust z-score = -0.401; G2 cells, % of GMNN control = 0.144; activity call = inactive
HCFC2 #3 — G2 robust z-score = -0.266; G2 cells, % of GMNN control = 1.1; activity call = inactive
JUNB #1 — G2 robust z-score = -0.695; G2 cells, % of GMNN control = -1.92; activity call = inactive
JUNB #2 — G2 robust z-score = -0.62; G2 cells, % of GMNN control = -1.39; activity call = inactive
JUNB #3 — G2 robust z-score = 4.37; G2 cells, % of GMNN control = 33.7; activity call = inactive
TRABD2A #1 — G2 robust z-score = -0.274; G2 cells, % of GMNN control = 1.04; activity call = inactive
TRABD2A #2 — G2 robust z-score = -0.961; G2 cells, % of GMNN control = -3.79; activity call = inactive
TRABD2A #3 — G2 robust z-score = -0.292; G2 cells, % of GMNN control = 0.915; activity call = inactive
LSM5 #1 — G2 robust z-score = -0.972; G2 cells, % of GMNN control = -3.87; activity call = inactive
LSM5 #2 — G2 robust z-score = 0.521; G2 cells, % of GMNN control = 6.63; activity call = inactive
